Measurements as given in publication PMC5454368.
These are yes or no findings as the source states them, for the method shown. Binding seen in cells or lysates may run through a third protein. Some results given as binding are weak or reduced against the parent protein; the word gives no strength.

Sequences of proteins named here, by UniProt entry; tags and fusion partners are left off.
UniProt Q8IXJ9: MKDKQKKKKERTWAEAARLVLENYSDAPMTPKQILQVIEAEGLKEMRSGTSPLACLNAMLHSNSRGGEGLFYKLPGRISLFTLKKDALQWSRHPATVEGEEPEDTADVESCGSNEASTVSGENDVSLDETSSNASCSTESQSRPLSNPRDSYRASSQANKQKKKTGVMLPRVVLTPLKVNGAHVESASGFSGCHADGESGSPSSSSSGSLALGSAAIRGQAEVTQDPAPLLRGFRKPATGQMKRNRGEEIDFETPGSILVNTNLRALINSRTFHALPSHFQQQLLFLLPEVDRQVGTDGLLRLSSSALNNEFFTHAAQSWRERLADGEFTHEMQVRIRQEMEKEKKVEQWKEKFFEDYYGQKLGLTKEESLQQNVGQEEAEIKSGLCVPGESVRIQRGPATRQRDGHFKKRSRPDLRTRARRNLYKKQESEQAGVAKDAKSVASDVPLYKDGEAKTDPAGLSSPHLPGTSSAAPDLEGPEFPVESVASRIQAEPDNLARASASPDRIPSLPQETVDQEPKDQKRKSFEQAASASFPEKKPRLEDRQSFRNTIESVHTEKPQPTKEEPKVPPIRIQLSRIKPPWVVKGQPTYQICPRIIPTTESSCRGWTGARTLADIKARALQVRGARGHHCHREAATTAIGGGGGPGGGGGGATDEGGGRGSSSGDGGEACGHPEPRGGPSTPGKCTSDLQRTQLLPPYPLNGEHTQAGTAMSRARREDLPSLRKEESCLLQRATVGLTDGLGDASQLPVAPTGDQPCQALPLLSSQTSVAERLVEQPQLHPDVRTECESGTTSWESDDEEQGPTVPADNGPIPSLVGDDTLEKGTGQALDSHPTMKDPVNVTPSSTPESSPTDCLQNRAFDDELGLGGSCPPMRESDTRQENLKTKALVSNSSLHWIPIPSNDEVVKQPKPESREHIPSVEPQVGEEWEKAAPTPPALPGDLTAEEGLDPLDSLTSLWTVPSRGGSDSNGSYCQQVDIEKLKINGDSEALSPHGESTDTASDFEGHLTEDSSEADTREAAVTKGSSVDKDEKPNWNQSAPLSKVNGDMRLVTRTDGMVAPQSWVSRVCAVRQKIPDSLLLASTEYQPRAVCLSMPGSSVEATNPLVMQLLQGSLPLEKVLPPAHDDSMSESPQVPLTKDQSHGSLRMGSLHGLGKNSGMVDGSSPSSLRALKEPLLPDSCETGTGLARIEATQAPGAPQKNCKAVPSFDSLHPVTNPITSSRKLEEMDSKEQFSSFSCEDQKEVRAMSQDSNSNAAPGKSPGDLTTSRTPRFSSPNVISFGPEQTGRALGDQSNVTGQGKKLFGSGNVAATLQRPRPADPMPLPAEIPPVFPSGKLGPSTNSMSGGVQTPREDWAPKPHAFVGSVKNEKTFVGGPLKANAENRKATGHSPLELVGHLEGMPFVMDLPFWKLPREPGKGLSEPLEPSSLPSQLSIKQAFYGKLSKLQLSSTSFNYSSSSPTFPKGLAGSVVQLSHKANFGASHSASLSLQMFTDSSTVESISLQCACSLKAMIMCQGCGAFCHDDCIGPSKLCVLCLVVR
UniProt Q76L83: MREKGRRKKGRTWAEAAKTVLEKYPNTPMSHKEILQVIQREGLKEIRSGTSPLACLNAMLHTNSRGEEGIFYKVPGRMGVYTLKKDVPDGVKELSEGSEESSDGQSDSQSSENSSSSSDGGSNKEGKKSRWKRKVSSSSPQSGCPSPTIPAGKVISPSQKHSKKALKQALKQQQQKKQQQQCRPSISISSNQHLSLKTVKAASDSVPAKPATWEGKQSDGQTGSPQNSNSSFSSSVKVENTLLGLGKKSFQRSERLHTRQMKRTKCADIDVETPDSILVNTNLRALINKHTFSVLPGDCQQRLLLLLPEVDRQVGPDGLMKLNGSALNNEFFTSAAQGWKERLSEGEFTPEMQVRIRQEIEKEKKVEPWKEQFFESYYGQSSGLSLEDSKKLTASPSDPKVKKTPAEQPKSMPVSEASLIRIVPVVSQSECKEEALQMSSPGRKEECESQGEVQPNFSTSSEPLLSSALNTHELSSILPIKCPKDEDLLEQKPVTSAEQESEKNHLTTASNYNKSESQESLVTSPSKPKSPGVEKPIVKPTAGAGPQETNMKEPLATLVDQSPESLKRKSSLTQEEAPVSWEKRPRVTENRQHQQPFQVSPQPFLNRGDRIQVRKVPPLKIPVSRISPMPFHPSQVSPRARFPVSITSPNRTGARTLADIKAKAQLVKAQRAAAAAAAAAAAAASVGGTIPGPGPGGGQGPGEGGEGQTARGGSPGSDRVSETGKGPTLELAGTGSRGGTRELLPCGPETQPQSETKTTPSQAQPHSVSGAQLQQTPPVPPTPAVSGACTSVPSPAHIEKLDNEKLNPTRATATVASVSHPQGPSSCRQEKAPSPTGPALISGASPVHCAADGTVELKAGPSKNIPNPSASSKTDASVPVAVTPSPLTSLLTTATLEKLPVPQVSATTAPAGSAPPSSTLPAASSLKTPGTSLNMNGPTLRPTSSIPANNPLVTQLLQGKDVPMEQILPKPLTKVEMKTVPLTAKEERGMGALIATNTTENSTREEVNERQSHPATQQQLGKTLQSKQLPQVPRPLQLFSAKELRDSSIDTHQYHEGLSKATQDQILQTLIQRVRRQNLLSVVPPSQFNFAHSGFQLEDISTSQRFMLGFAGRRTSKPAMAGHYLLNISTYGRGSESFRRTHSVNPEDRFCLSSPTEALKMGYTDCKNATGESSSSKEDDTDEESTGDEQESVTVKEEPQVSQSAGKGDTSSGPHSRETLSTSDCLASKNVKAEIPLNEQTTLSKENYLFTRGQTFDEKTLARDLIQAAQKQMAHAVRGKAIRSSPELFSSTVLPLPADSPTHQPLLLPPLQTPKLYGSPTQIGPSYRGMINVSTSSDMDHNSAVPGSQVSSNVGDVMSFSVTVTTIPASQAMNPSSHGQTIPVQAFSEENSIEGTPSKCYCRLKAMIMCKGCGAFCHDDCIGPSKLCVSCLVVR
UniProt Q92560: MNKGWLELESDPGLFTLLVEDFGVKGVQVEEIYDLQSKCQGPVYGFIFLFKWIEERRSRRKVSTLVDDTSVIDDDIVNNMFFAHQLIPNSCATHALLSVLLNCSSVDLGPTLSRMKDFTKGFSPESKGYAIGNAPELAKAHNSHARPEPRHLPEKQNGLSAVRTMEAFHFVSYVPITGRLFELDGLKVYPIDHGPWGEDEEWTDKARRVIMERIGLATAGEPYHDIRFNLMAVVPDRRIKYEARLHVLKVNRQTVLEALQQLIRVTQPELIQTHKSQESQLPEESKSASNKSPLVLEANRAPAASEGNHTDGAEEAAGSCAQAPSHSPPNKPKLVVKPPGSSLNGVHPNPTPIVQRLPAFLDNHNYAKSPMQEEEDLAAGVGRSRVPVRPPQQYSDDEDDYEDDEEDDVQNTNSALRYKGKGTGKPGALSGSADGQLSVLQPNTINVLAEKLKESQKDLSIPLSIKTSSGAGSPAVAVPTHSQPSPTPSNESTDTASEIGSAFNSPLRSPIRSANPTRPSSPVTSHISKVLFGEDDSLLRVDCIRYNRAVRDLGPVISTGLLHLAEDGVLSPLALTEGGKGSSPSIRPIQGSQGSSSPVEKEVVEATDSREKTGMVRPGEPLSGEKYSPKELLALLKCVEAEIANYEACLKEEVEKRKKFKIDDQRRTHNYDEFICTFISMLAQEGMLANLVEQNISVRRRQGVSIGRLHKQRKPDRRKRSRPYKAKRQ
UniProt Q01196: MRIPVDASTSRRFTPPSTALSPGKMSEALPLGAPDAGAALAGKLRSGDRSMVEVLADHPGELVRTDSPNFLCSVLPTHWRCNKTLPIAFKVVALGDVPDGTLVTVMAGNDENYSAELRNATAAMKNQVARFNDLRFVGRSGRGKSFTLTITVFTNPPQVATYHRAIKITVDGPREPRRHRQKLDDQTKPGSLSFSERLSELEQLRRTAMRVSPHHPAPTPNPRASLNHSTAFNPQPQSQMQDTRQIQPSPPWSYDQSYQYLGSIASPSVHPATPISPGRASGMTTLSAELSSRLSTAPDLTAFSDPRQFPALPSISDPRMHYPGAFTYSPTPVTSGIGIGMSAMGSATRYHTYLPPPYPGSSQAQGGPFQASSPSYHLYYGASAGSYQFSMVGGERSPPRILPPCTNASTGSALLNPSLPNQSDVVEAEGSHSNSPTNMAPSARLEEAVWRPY
UniProt Q15022: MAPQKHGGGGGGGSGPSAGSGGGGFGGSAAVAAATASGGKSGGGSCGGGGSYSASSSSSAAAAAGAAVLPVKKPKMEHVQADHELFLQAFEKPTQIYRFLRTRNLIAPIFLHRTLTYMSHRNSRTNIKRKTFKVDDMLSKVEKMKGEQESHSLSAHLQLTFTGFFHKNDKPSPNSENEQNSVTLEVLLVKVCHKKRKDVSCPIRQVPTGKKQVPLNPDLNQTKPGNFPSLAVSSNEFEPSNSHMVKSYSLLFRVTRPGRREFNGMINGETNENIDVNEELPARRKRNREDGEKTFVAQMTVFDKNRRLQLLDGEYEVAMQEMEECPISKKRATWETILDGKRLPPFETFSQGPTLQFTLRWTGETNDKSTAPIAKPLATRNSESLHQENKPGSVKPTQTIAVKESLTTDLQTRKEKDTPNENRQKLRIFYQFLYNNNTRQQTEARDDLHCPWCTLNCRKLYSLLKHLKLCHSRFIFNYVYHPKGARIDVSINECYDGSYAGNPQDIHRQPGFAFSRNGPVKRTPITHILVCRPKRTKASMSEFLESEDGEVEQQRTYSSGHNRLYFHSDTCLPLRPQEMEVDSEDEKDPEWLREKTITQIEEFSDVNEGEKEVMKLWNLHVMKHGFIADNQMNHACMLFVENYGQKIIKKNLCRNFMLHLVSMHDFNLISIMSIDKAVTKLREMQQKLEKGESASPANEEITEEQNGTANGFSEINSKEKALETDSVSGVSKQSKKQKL

Legend:
[1] = target: ASXL1 (UniProt Q8IXJ9); experiment: co-IP; co-immunoprecipitation (Supplementary Fig. 6a,b); cells, baits and conditions not told in the text shown
[2] = target: ASXL2 (UniProt Q76L83); experiment: as above

Row | binding [1] | binding [2] | Substance
1 | binds |  | BAP1 (from UniProt Q92560 1-729)
2 |  | no binding | RUNX1 (from UniProt Q01196 1-453)
3 | binds |  | SUZ12 (from UniProt Q15022 1-739)
